Results on 60 compounds are retold here after PubChem BioAssay AID493014 (National Center for Advancing Translational Sciences (NCATS), 2011).

The assay in a line: qHTS Assay to Find Inhibitors of Chronic Active B-Cell Receptor Signaling. The following applies: ABC-DLBCL IkBa-CBG/CBR reporter, luminescence ratio (green luciferase fused to IkBa over red control in TMD8 lymphoma cells), 4 h. In short, it runs like this: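 Cell line TMD8 (human ABC DLBCL), stably expressing tet-inducible CBG68-IkBa fusion and CBR; IMDM/0.5% FBS; cpd up to 46 uM; dox induction, 4 h, 37C/5% CO2; dual luminescence; green/red ratio; MG132 control.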
In general terms: In qHTS, concentration-response curves come from the screen itself.

The mark [1] stands for this setting: measured here: CBR red luminescence, cell number.
[2] abbreviates: measured here: IkBa-CBG green luminescence.

The other results are listed elsewhere or left out. Shown are side measurements of this screen, not its main read-out; they come without a call. Most of these compounds were active or inconclusive in the main read-out, so they are no random draw. Words in brackets tell the shape of the fitted curve; partial curves, single points and poor fits give uncertain potencies.

In the case of `COC(=O)c1ccc(NC(=S)Nc2ccccc2)cc1`, the AC50 under setting [1] was 29.1 µM [rising, single point].
On to `O=C1NC(c2ccc(-c3ccccc3[N+](=O)[O-])o2)C(C(=O)c2ccccc2)C(O)(C(F)(F)F)N1` (stereo unspecified), for which the AC50 was 20.6 µM [falling, single point] under setting [1] and 29.1 µM [rising, partial curve, poor fit] under setting [2].
As for `CC1CCc2c(sc(N)c2C(=O)OC(C)C)C1` (stereo unspecified), the half-maximal activity concentration (AC50) under setting [1] is 1.16 µM [rising, full curve, poor fit].
As to `N=C1S/C(=C\c2ccco2)C(=O)N1c1nccs1`, the AC50 was 2.51 µM [falling, full curve, poor fit] under setting [1] and 3.98 µM [falling, single point] under setting [2].
In the case of `CCCCCCn1c(CN2CCN(CCO)CC2)nc2c1c(=O)n(C)c(=O)n2C`, the AC50 under setting [1] is 2.06 µM [rising, partial curve].
On the same count and under the same terms, the result for `CCN1C(=O)c2ccc(C(=O)NCc3ccco3)cc2C1=O` reads 6.31 µM [falling, full curve]; that for `COc1ccc(CCC(=O)Nc2nnc(C(F)(F)F)s2)cc1`, 1.26 µM [rising, full curve, poor fit].
On the same count and under the same terms, the result for `COc1cc(-c2nc(-c3ccc4c(c3)-c3ccccc3S4(=O)=O)c(-c3ccccc3)[nH]2)cc(OC)c1OC` reads 1.3 µM [falling, full curve].
On to `C=CCn1c(SCC(=O)NCCO)nc2sc(C)c(C)c2c1=O`, for which the half-maximal activity concentration (AC50) under setting [2] is 17.8 µM [falling, partial curve, poor fit].
For `Cc1ccc(S(=O)(=O)N(C)C)cc1[N+](=O)[O-]`, the AC50 under setting [1] was 2.24 µM [falling, partial curve, poor fit].
Regarding `COc1cc(C2C(C#N)=C(C)NC(C)=C2C#N)cc(OC)c1OC`, the AC50 under setting [1] is 11.6 µM [rising, partial curve].
The same measure, in the same setting: the result for `Cc1ccc(S(=O)(=O)N2CCCCC2)cc1NC(=O)Cn1ncc(Cl)c(Cl)c1=O` reads 5.17 µM [falling, full curve]; that for `Cc1c(C(=O)Nc2c(C)n(C)n(-c3ccccc3)c2=O)oc2ccccc12`, 0.0058 µM [rising, full curve].
As to `COc1ccc(-c2csc(NS(=O)(=O)c3ccc([N+](=O)[O-])cc3)n2)cc1`, the AC50 under setting [2] was 16.4 µM [rising, partial curve, poor fit].
Take `CC1=NN(Cc2ccccc2)C(=O)C1C(c1ccncc1)C(C#N)C#N` (stereo unspecified): the half-maximal activity concentration (AC50) under setting [1] is 7.08 µM [falling, full curve, poor fit].
The same measure, in the same setting: as for `O=c1oc(-c2ccccc2NS(=O)(=O)c2ccc(F)cc2)nc2ccccc12`, the figure is 20 µM [rising, partial curve, poor fit]; as for `Cc1ccc(OCC(=O)NC(=S)Nc2ccccn2)c(Br)c1`, 0.794 µM [rising, partial curve, poor fit].
On to `COc1ccc(Cl)cc1NC(=S)N(Cc1ccccc1C)CC1CCC(C(=O)O)CC1` (stereo unspecified), for which the half-maximal activity concentration (AC50) is, setting by setting: under setting [1], 3.55 µM [falling, partial curve, poor fit]; under setting [2], 11.2 µM [rising, partial curve, poor fit].
Take `c1ccc(C2OCC3(CO2)COC(c2ccccc2)OC3)cc1` (stereo unspecified): the AC50 under setting [1] is 14.1 µM [rising, partial curve, poor fit].
Turning to `CCC(=O)Nc1c(C#N)c2nc3ccccc3nc2n1-c1ccccc1C`, the AC50 under setting [1] was 6.51 µM [rising, full curve, poor fit].
The same measure, in the same setting: the result for `O=C(CC(n1cncn1)C(Cl)(Cl)Cl)c1ccc([N+](=O)[O-])cc1` (stereo unspecified) reads 0.282 µM [rising, full curve, poor fit]; that for `CCOC(=O)c1c(S(=O)(=O)N2CCN(c3ccc(F)cc3)CC2)c(C)n(C)c1C`, 1 µM [rising, full curve, poor fit]; that for `O=[N+]([O-])c1cccnc1Oc1ccc(C2SCCS2)cc1`, 1.78 µM [rising, partial curve, poor fit].
On the same count and under the same terms, the result for `CCOC(=O)Cc1csc(NC(=O)CSc2nnnn2-c2ccc(F)cc2)n1` reads 7.08 µM [falling, partial curve, poor fit]; that for `N#C/C(=C(/O)Cc1cccc2ccccc12)c1nc2ccccc2s1`, 1.03 µM [rising, full curve, poor fit].
On the same count and under the same terms, as for `CCc1nc(N2CCN(c3nc(C)cc(C)n3)CC2)c2oc3ccccc3c2n1`, the figure is 2.06 µM [rising, partial curve, poor fit]; as for `O=C(c1cccc(F)c1)N1CCN(C(=O)c2nn3cccnc3c2Cl)CC1`, 25.9 µM [falling, partial curve, poor fit]; as for `COc1ccccc1C1CC(c2c(-c3ccccc3)c3cc(Cl)ccc3[nH]c2=O)=NN1S(C)(=O)=O` (stereo unspecified), 7.94 µM [falling, partial curve, poor fit].
Consider `O=c1cc(-c2ccccc2)nc(SCc2ccccc2F)[nH]1`, for which the AC50 under setting [1] was 2 µM [rising, full curve, poor fit].
On the same count and under the same terms, as for `CC[C@]12c3[nH]c4ccccc4c3CCN1C(=O)C(CC(=O)NCCc1ccccn1)C[C@@H]2C(=O)N1CCN(C(=O)C2CC2)CC1` (stereo partly specified), the figure is 4.61 µM [rising, full curve, poor fit]; as for `COc1ccc(NC(=O)CC2C(=O)N(Cc3cccs3)C(=S)N2C(C)C)cc1` (stereo unspecified), 14.1 µM [falling, single point].
Turning to `Cc1nn(Cc2ccccc2Cl)c2sc(C(=O)Nc3nccs3)cc12`, the AC50 under setting [1] is 23.1 µM [falling, partial curve].
On the same count and under the same terms, as for `Cc1ccc(C(=O)N/N=C2\CC3CC=CC23)c(C)c1` (stereo unspecified), the figure is 7.08 µM [falling, partial curve, poor fit].
The same measure, in the same setting: as for `C=CCNc1nc(-c2ccccc2)nc(-n2ccnc2)n1`, the figure is 28.2 µM [falling, single point].
The same measure, in the same setting: as for `CC(=O)N1N=C(c2ccncc2)OC12CCCC2`, the figure is 18.4 µM [rising, single point].
`Cc1ccc2nc(-c3ccccc3)cc(C(=O)N3CCc4ccccc4C3)c2c1`: the half-maximal activity concentration (AC50) under setting [2] was 12.6 µM [rising, partial curve, poor fit].
For `COc1ccc(OCC(O)Cn2c(N)nc3c2c(=O)[nH]c(=O)n3C)cc1` (stereo unspecified), the concentration at half-maximal activity (AC50) under setting [1] was 1.78 µM [rising, partial curve, poor fit].
On the same count and under the same terms, the result for `COC(=O)c1sccc1OCc1cccc(OC)c1` reads 4.47 µM [rising, partial curve]; that for `Cc1ccc(NC(=O)N2CCc3ccccc3C2)cc1`, 23.1 µM [falling, partial curve, poor fit].
Same read-out and setting: as for `O=C(CCl)c1ccc2c(c1)CCN2C(=O)C1CC1`, the figure is 35.5 µM [falling, single point]; as for `Cc1ccc(S(=O)(=O)N(CC(=O)N2CCOCC2)C2CCCCC2)cc1`, 5.8 µM [falling, single point]; as for `CCCCN(CC)C(=O)CSc1nc2ccccc2c(=O)n1Cc1ccco1`, 3.55 µM [falling, full curve, poor fit].
Still for that read-out and setting: the result for `CCC(=O)Nc1cccc(NC(=S)NC(=O)c2ccccc2)c1` reads 20.6 µM [falling, partial curve, poor fit].
For the compound `O=C(Oc1ccccc1)c1cccnc1Oc1ccccc1`, the half-maximal activity concentration (AC50) under setting [1] is 35.5 µM [rising, single point].
`Cc1ccc(NC(=S)NC(=O)c2ccc(F)cc2)cc1S(=O)(=O)Nc1cccc(Cl)c1`: the concentration at half-maximal activity (AC50) under setting [1] is 35.5 µM [falling, single point] and the half-maximal activity concentration (AC50) under setting [2] was 2.51 µM [falling, partial curve, poor fit].
As to `COc1cccc(NC2=Nc3cccc4cccc2c34)c1`, the AC50 under setting [1] is 16.4 µM [falling, partial curve].
As for `CC1C(=O)CC(c2ccccc2)N(C)C1c1ccccc1` (stereo unspecified), under setting [1], the AC50 is 0.58 µM [rising, full curve, poor fit].
The same measure, in the same setting: as for `NNC(=O)c1cccc(COc2ccccc2Br)c1`, the figure is 35.5 µM [falling, single point]; as for `O=C(Nc1nc2c(s1)CCCC2)c1nn(Cc2ccccc2)c(=O)c2ccccc12`, 8.2 µM [rising, partial curve, poor fit]; as for `COc1cc(C=C(c2nc3ccccc3s2)c2nc3ccccc3s2)cc(OC)c1O`, 11.6 µM [falling, partial curve, poor fit].
The same measure, in the same setting: as for `Cn1c(=O)[nH]c(=O)c2c1nc(SCC(O)CO)n2CCCc1ccccc1` (stereo unspecified), the figure is 35.5 µM [rising, single point].
The same measure, in the same setting: as for `COc1ccccc1NC(=O)Nc1nc(CC(=O)NC2CCCC2)cs1`, the figure is 0.58 µM [rising, full curve]; as for `COc1ccccc1NC(=O)C(=O)Nc1ccc2c(c1)N(C(=O)C1CC1)CCC2`, 1.3 µM [falling, partial curve, poor fit].
In the case of `COc1ccc(N2C(=O)N3[C@H](c4cccc(C)c4)[C@@H]4C(=O)N(Cc5ccccc5)C(=O)[C@@H]4[C@]3(Cc3ccccc3)C2=O)cc1`, the concentration at half-maximal activity (AC50) reads like this: under setting [1], 2 µM [falling, full curve, poor fit]; under setting [2], 3.16 µM [rising, full curve, poor fit].
With `Cc1cc(C)c(S(=O)(=O)Nc2cc(C)on2)c(C)c1`, the AC50 under setting [1] was 0.562 µM [rising, full curve].
Regarding `NC(=O)/C(N=Nc1ccccc1)=N/Nc1ccccc1`, the concentration at half-maximal activity (AC50) under setting [1] is 32.6 µM [falling, single point].
On the same count and under the same terms, as for `COc1ccc(-c2csc(N3C(=N)SCC3=O)n2)cc1`, the figure is 0.708 µM [rising, full curve, poor fit]; as for `COC(=O)c1sccc1-c1ccc(/C=N/OC(=O)c2ccccc2)o1`, 15.8 µM [falling, partial curve, poor fit].
Turning to `Cc1cc(C)c2cc(CN(Cc3ccco3)C(=S)NCC3CCCO3)c(=O)[nH]c2c1` (stereo unspecified), the AC50 by setting is: under setting [1], 14.1 µM [falling, single point]; under setting [2], 14.1 µM [rising, partial curve, poor fit].
As to `COc1cccc(OCC(O)CN2CCN(CCN3C(=O)c4cccc5cccc(c45)C3=O)CC2)c1` (stereo unspecified), the AC50 under setting [1] was 17.8 µM [falling, single point].

In general, AC50 refers to the midpoint of the concentration-response curve, whichever way the signal moves.
